Experimental findings from the supplement of paper PMC10849652 are described below.

The chains behind the UniProt entries cited, without tags or fusion partners. Where a name states a change or a piece, a line headed by the entry shows the natural chain unless it says otherwise.
UniProt Q9NVV5: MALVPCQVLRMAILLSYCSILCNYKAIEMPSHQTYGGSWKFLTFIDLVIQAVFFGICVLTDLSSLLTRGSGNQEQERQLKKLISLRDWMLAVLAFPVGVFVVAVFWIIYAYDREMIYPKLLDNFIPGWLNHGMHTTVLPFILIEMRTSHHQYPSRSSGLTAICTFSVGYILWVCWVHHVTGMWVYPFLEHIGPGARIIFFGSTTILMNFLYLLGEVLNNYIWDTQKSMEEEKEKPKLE
UniProt Q9UEY8: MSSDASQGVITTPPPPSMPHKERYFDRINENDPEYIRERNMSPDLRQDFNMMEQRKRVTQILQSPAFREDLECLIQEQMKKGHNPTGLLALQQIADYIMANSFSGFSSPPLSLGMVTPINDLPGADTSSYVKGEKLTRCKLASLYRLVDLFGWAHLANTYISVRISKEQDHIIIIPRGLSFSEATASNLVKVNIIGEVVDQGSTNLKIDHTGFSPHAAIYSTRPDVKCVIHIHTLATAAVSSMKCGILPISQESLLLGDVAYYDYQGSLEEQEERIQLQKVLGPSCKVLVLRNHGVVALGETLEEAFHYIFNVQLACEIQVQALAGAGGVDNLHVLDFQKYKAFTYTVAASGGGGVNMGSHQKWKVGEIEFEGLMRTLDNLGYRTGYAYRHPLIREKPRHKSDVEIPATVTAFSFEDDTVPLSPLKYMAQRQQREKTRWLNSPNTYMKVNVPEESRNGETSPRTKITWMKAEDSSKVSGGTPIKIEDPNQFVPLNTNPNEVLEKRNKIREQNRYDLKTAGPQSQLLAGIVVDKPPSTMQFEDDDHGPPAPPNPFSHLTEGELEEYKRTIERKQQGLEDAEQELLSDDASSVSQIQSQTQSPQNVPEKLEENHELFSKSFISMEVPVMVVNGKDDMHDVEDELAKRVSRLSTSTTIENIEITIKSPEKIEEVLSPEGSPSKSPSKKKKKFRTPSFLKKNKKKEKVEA
UniProt Q9C0C7: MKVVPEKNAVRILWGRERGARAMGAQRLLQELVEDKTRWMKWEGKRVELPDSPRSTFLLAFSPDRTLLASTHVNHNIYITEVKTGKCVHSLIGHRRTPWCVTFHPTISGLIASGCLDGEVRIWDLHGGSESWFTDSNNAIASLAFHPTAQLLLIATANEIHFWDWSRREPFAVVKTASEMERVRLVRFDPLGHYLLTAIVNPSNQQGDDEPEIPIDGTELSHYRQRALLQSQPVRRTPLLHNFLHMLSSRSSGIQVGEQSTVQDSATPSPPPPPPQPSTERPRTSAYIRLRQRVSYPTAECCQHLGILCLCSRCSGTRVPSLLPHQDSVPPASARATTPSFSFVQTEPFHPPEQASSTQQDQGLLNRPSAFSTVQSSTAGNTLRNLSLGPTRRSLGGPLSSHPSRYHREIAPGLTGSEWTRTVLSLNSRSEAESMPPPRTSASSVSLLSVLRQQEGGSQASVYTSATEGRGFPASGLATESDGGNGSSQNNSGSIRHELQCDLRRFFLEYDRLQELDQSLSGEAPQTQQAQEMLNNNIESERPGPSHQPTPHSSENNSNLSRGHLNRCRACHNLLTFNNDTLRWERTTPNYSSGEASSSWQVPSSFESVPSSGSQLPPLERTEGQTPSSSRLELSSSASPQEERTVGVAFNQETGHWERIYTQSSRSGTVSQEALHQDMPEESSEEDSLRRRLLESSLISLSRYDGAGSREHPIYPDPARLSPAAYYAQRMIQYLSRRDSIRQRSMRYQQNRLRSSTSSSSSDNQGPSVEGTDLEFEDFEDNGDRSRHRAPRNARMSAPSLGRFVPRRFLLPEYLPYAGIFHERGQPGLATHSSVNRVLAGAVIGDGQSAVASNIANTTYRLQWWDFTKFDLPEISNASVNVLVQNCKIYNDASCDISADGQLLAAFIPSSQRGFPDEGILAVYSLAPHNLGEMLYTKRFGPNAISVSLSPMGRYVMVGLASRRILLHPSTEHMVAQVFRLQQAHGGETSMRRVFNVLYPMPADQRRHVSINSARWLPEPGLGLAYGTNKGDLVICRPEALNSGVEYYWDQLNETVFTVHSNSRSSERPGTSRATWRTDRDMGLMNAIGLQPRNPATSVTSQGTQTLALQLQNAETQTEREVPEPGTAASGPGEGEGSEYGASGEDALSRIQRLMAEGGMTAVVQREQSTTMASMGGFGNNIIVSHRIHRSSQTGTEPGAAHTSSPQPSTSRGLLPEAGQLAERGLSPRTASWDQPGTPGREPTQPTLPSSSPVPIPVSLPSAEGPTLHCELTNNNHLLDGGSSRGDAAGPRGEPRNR
UniProt P05091: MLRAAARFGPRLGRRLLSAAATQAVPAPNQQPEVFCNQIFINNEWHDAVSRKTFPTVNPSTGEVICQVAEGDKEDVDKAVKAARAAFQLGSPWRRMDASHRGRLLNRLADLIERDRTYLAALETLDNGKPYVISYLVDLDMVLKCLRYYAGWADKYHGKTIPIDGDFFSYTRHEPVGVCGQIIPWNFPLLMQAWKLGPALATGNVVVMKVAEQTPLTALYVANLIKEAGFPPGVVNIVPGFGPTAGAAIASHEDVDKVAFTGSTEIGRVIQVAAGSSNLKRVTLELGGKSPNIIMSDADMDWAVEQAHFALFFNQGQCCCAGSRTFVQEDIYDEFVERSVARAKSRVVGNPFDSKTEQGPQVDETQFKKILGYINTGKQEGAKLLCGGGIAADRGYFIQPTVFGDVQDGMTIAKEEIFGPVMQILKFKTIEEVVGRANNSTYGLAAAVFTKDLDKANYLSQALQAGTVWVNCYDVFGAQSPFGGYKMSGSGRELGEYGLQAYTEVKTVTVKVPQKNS
UniProt Q6QNK2: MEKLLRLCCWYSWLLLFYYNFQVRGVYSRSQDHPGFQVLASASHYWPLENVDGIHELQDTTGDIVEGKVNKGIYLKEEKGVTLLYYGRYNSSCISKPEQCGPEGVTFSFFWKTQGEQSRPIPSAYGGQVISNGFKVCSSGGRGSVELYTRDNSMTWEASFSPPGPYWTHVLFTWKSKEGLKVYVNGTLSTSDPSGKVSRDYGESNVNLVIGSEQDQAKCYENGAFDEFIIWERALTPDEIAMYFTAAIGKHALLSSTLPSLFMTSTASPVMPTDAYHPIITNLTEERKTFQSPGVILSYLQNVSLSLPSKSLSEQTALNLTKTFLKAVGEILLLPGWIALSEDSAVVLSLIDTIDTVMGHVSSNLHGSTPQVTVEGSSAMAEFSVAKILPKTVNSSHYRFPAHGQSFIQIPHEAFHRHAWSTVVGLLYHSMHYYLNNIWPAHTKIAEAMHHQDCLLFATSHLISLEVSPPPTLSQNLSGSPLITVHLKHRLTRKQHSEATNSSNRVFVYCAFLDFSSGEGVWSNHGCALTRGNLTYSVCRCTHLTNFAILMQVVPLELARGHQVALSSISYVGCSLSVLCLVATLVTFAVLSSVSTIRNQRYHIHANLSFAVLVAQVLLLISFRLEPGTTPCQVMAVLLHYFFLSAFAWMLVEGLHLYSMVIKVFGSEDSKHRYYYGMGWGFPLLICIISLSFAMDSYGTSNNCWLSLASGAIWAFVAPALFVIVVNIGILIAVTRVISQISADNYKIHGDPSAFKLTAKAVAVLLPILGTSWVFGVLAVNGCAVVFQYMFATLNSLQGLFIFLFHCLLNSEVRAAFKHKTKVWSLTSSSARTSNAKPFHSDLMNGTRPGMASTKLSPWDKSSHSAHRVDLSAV
UniProt O75342: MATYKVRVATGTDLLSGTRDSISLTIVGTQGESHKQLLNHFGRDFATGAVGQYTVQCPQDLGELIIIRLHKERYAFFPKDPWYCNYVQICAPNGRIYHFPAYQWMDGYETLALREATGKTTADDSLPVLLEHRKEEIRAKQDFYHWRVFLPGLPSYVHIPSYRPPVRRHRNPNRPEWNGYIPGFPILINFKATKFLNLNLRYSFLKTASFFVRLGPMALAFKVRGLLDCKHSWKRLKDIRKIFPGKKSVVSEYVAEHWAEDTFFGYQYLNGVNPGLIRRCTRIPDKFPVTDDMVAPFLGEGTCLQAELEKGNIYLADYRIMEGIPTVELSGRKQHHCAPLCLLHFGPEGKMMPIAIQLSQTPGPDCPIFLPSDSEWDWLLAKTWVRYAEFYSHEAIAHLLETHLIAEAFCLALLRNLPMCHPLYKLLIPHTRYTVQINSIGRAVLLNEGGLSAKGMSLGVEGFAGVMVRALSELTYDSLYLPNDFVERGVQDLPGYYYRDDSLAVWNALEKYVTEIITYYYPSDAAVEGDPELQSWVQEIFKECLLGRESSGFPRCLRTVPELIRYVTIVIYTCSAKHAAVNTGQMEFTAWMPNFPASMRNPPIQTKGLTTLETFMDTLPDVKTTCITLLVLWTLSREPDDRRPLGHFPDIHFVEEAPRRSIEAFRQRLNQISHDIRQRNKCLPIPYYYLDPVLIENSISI
UniProt P51857: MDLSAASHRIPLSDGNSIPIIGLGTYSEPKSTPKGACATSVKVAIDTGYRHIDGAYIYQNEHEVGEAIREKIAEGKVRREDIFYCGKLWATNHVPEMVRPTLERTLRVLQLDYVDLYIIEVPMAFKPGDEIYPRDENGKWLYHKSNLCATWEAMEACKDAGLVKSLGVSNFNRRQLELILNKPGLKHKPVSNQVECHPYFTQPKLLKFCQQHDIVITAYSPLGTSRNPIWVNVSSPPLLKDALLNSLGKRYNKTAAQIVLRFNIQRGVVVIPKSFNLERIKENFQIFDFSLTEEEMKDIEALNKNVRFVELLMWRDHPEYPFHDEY
UniProt Q6NS38: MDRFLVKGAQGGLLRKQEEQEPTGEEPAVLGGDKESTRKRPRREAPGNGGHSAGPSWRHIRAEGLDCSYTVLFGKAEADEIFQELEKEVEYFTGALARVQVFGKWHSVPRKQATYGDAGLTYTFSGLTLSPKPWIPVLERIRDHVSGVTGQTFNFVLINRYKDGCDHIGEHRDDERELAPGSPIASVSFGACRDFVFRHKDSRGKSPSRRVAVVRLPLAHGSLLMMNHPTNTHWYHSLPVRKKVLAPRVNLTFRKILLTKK
UniProt Q13686: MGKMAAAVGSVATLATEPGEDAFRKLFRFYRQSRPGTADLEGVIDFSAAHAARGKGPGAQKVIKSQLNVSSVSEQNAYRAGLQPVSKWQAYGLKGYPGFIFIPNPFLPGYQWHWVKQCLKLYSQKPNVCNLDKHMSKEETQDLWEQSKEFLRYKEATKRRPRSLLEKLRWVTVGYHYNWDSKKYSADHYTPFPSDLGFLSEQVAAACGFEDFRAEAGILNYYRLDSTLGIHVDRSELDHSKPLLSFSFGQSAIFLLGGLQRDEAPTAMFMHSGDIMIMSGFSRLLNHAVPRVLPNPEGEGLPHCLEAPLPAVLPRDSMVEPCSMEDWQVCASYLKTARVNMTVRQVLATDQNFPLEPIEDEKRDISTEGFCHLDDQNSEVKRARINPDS
UniProt Q9Y303: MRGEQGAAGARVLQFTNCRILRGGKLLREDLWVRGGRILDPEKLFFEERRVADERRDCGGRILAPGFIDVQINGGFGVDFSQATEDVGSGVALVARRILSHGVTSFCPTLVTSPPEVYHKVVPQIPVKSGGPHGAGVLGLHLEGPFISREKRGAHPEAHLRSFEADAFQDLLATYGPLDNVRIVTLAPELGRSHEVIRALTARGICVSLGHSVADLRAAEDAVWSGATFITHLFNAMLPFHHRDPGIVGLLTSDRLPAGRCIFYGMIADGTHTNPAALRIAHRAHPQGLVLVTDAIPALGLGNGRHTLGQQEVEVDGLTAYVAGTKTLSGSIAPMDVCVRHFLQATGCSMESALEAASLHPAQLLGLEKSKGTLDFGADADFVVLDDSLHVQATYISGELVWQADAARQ
UniProt Q6RW13: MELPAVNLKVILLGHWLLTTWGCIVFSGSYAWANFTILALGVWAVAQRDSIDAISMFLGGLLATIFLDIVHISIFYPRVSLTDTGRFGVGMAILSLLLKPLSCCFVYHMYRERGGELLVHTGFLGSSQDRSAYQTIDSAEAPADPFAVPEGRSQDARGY
UniProt Q9NRZ5: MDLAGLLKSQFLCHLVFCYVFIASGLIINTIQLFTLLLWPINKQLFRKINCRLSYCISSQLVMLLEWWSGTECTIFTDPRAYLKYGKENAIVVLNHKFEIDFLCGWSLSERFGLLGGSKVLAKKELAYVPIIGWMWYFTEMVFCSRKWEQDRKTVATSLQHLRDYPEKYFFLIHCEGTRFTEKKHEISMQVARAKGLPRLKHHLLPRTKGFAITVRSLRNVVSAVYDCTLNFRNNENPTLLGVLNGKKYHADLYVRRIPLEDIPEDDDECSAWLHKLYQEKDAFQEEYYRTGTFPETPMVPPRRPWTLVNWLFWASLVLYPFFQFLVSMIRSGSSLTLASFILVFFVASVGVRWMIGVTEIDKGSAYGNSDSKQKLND

The list shows a part of the results.

Compound in one experiment: C1=CC=C2C(=C1)C3=NNC4=CC=CC(=C43)C2=O
The experiment can be described thus: log2 fold change, soluble protein after heating vs DMSO (PISA); higher = thermal stabilisation; K562 cells, 10 uM, 30 min; active = over 0.2 and 3.5 SD of the protein, either way, in both replicates (recomputed). The essentials:
(§1)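 Aliquots of K562 cells (2×10^6 cells/mL) treated with 10 μM compound for 30 min were heated for 3 min over 48°C-58°C. After pooling and extraction in PBS with 0.5% NP-40 at 4°C, soluble protein from a 21,000xg, 90 min spin was quantified by TMTpro 16plex LC-MS/MS with channel sums equalised. Thermal stability is expressed against control samples, from duplicates, as a log2 fold change.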
AIG1 (UniProt Q9NVV5): the log2 fold change was inactive: -0.096.
With ADD3 isoform 2 (UniProt Q9UEY8), the log2 fold change is inactive: 0.047.
The same measure, in the same setting: with AMBRA1 isoform 5 (UniProt Q9C0C7) the figure was inactive: 0.018; with ALDH2 isoform 2 (UniProt P05091), inactive: 0.131; with ADGRD1 isoform 4 (UniProt Q6QNK2), inactive: -0.024.
On the same count and under the same terms, the same measure for ALOX12B (UniProt O75342): inactive: -0.203; for ADCY7 (UniProt P51828): inactive: -0.274.
Same read-out and setting: with ADNP (UniProt Q9H2P0) the figure was inactive: -0.019; with AKR1D1 (UniProt P51857), inactive: -0.072.
Take ALKBH2 (UniProt Q6NS38): the log2 fold change is inactive: -0.127.
The same measure, in the same setting: with ALG13 isoform 2 (UniProt Q9NP73) the figure was inactive: -0.076; with ALDOC (UniProt J3QKP5), inactive: -0.322; with ALKBH1 (UniProt Q13686), inactive: -0.117.

Compound in the next experiment: C1CCN(C1)C(=O)NC2=CC=CC(=C2)NC3=NC=C(C(=N3)NCCC4=CN=CN4)Br
The description is as above. The essentials:
as §1
For AMDHD2 (UniProt Q9Y303), the log2 fold change was inactive: -0.02.
Same read-out and setting: with AIG1 (UniProt Q9NVV5) the figure was inactive: 0.099.
Still for that read-out and setting: with ADD3 isoform 2 (UniProt Q9UEY8) the figure was inactive: -0.016; with AMBRA1 isoform 5 (UniProt Q9C0C7), inactive: -0.009.
Same read-out and setting: the same measure for ALDH2 isoform 2 (UniProt P05091): inactive: 0.208; for ADGRD1 isoform 4 (UniProt Q6QNK2): inactive: -0.035; for ALOX12B (UniProt O75342): inactive: -0.229.
For the target AGTRAP isoform 2 (UniProt Q6RW13), the log2 fold change is inactive: 0.121.
The same measure, in the same setting: the same measure for ALOX5 (UniProt P09917): inactive: 0.031.
On the same count and under the same terms, the same measure for AKR1D1 (UniProt P51857): inactive: -0.023; for ALKBH2 (UniProt Q6NS38): inactive: -0.008.
The same measure, in the same setting: with AGPAT4 (UniProt Q9NRZ5) the figure was inactive: -0.115; with ALDOC (UniProt J3QKP5), inactive: 0.263.
Turning to ALKBH1 (UniProt Q13686), the log2 fold change was inactive: -0.17.

Compound in a further experiment: C1CN(CCC1(CC2=CC=C(C=C2)Cl)N)C3=NC=NC4=C3C=CN4
The description is as above. In short, it runs like this: as §1
For AMDHD2 (UniProt Q9Y303), the log2 fold change was inactive: 0.078.
On the same count and under the same terms, the same measure for AIG1 (UniProt Q9NVV5): inactive: 0.055.
Still for that read-out and setting: the same measure for ADD3 isoform 2 (UniProt Q9UEY8): inactive: 0.034; for AMBRA1 isoform 5 (UniProt Q9C0C7): inactive: 0.203.
On the same count and under the same terms, with ALDH2 isoform 2 (UniProt P05091) the figure was inactive: 0.032; with ADGRD1 isoform 4 (UniProt Q6QNK2), inactive: 0; with ALOX12B (UniProt O75342), inactive: -0.401.
As for AGTRAP isoform 2 (UniProt Q6RW13), the log2 fold change is inactive: -0.017.
Still for that read-out and setting: the same measure for ALOX5 (UniProt P09917): inactive: 0.07; for AKR1D1 (UniProt P51857): inactive: -0.395.
On the same count and under the same terms, with ALKBH2 (UniProt Q6NS38) the figure was inactive: -0.086.
Same read-out and setting: with AGPAT4 (UniProt Q9NRZ5) the figure was inactive: -0.022; with ALDOC (UniProt J3QKP5), inactive: -0.015; with ALKBH1 (UniProt Q13686), inactive: 0.127.
